In PubChem BioAssay AID256 (DTP/NCI, 2004):
The list is a part of this screen's results and no random one: it gathers tests that were run many times, whatever their T/C, doses with no T/C, and many T/C values between a quarter and a half above the control. Other doses and runs of a compound stand elsewhere. T/C is the treated group as % of the vehicle group. Some entries give survivors of the animals treated and no T/C: the source holds a T/C of zero for them, seemingly a mark for toxic or unscored doses. Some doses without a T/C left all or most animals alive at the check, yet need not have been tolerated: survival well below the control is almost never listed, so the zero probably covers shortened survival too. Survivors were counted at the toxicity check, usually on the fifth day, unless a day is given; later deaths do not show. Schedules are NCI's codes, read here as Q, the interval in days (D) or hours (H), X, the number of doses. Some entries were tested several times; their values stand side by side, smallest first. Additions like (4×) stand for listed records that agree. For survival time, this PubChem deposit counts one and a half times the control or more as active, and values a quarter to a half above the control carry no call in these data; other NCI protocols may use other cut-offs. Some T/C values are followed by the survivors on the day toxicity was checked, most often the fifth; without a count, all were alive then.

Tested on: CD2F1 mice, L1210 leukemia ip, survival T/C
Assay: NCI In Vivo Anticancer Drug Screen. Data for tumor model L1210 Leukemia (intraperitoneal) in CD2F1 (CDF1) mice
Settings: higher T/C = longer survival
Procedure, shortened: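 Transplantable tumor in mice; compound-treated vs vehicle-treated groups. Read-out = treated/control ratio of the measured endpoint.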

[1] = T/C endpoint: mean survival time, dose: 200.0 mg/kg/injection, schedule: Q01DX009 (ip), vehicle: saline with Tween-80
[2] = T/C endpoint: mean survival time, dose: 400.0 mg/kg/injection, schedule: Q04DX003 (ip), vehicle: saline with Tween-80
[3] = T/C endpoint: mean survival time, dose: 200.0 mg/kg/injection, schedule: Q04DX003 (ip), vehicle: saline with Tween-80
[4] = T/C endpoint: mean survival time, dose: 100.0 mg/kg/injection, schedule: Q04DX003 (ip), vehicle: saline
[5] = T/C endpoint: mean survival time, dose: 200.0 mg/kg/injection, schedule: Q04DX003 (ip), vehicle: saline
[6] = T/C endpoint: mean survival time, dose: 400.0 mg/kg/injection, schedule: Q04DX003 (ip), vehicle: saline
[7] = T/C endpoint: mean survival time, dose: 400.0 mg/kg/injection, schedule: Q01DX009 (ip), vehicle: saline with Tween-80
[8] = T/C endpoint: mean survival time, dose: 200.0 mg/kg/injection, schedule: Q01DX009 (ip), vehicle: saline
[9] = T/C endpoint: mean survival time, dose: 400.0 mg/kg/injection, schedule: Q01DX009 (ip), vehicle: saline
[10] = T/C endpoint: mean survival time, dose: 200.0 mg/kg/injection, schedule: Q04DX002 (ip), vehicle: saline
[11] = T/C endpoint: mean survival time, dose: 400.0 mg/kg/injection, schedule: Q04DX002 (ip), vehicle: saline
[12] = T/C endpoint: mean survival time, dose: 200.0 mg/kg/injection, schedule: Q01DX001 (ip), vehicle: saline with Tween-80
[13] = T/C endpoint: mean survival time, dose: 100.0 mg/kg/injection, schedule: Q01DX009 (ip), vehicle: saline with Tween-80
[14] = T/C endpoint: mean survival time, dose: 200.0 mg/kg/injection, schedule: Q01DX009 (ip), vehicle: other

## CCCCCC(C[N+](C)(C)C)C(=O)/C=C/c1ccc(Cl)cc1 (stereo not drawn)
T/C endpoint: mean survival time, dose: 100.0 mg/kg/injection, schedule: Q01DX009 (ip), vehicle: Klucel (hydroxypropylcellulose) (HPC)
  survivor count: 0 of 6

## O=C(CC(O)(C(F)(F)F)C(F)(F)F)c1ccco1
[1]
  survivor count: 0 of 6
[2]
  survivor count: 0 of 6

## Cc1ccc(O)c(N)c1
[2]
  survivor count: 1 of 6

## CCCCCCCCCCCCCC[N+](C)(C)Cc1cc(=O)c(O)co1
[3]
  survivor count: 0 of 3
[2]
  survivor count: 0 of 3

## CSc1ccc(C(c2ccc(SC)cc2)C(Cl)(Cl)Cl)cc1
[3]
  survivor count: 6 of 6

## CCOC(=O)C(Cc1ccccc1C(=O)NC)c1ccccc1 (stereo not drawn)
T/C endpoint: mean survival time, dose: 100.0 mg/kg/injection, schedule: Q01DX009 (ip), vehicle: saline sonified
  survivor count: 6 of 6
T/C endpoint: mean survival time, dose: 200.0 mg/kg/injection, schedule: Q01DX009 (ip), vehicle: saline sonified
  survivor count: 6 of 6

## CC(=O)OC1=NC(C)c2c1cc(OC(C)=O)[nH]c2=O (stereo not drawn)
T/C endpoint: mean survival time, dose: 200.0 mg/kg/injection, schedule: Q01DX009 (ip), vehicle: Klucel (hydroxypropylcellulose) (HPC)
  survivor count: 2 of 6 (2×)

## O=CN(O)CC(=O)O.[Cu]
T/C endpoint: mean survival time, dose: 12.5 mg/kg/injection, schedule: Q01DX009 (ip), vehicle: acetone
  survivor count: 0 of 6
T/C endpoint: mean survival time, dose: 25.0 mg/kg/injection, schedule: Q04DX003 (ip), vehicle: saline
  survivor count: 1 of 6
T/C endpoint: mean survival time, dose: 50.0 mg/kg/injection, schedule: Q04DX003 (ip), vehicle: saline
  survivor count: 1 of 6
[4]
  survivor count: 0 of 6
[5]
  survivor count: 0 of 6
[6]
  survivor count: 0 of 6

## O=C1NC(=O)/C(=C/C=C/c2ccccc2)S1
[7]
  survivor count: 1 of 6

## CCOP(=O)(OCC)OC(C)C#N (stereo not drawn)
T/C endpoint: mean survival time, dose: 50.0 mg/kg/injection, schedule: Q01DX009 (ip), vehicle: saline
  survivor count: 3 of 6
T/C endpoint: mean survival time, dose: 100.0 mg/kg/injection, schedule: Q01DX009 (ip), vehicle: saline
  survivor count: 0 of 6
[8]
  survivor count: 0 of 6
[9]
  survivor count: 0 of 6

## CCC1CC(C)C(=O)NC1=O (stereo not drawn)
[4]
  survivor count: 4 of 6
[5]
  survivor count: 0 of 6
[6]
  survivor count: 0 of 6

## NC(CCl)=NCCc1ccsc1
[10]
  survivor count: 0 of 3
[11]
  survivor count: 0 of 3

## CCOC(=O)c1cc(C[N+](C)(C)C)oc1C
[12]
  survivor count: 0 of 6
T/C endpoint: mean survival time, dose: 400.0 mg/kg/injection, schedule: Q01DX001 (ip), vehicle: saline with Tween-80
  survivor count: 0 of 6

## O=C(O)C(O)C(O)C(OC1OC(CO)C(O)C(O)C1O)C(O)CO.O=C(O)C(O)C(O)C(OC1OC(CO)C(O)C(O)C1O)C(O)CO.[NH-]C1CCCCC1[NH-].[Pt+2] (stereo not drawn)
T/C endpoint: median survival time, dose: 3.12 mg/kg/injection, schedule: Q04DX003 (ip), vehicle: saline
  T/C: 134 % of control
T/C endpoint: median survival time, dose: 6.25 mg/kg/injection, schedule: Q04DX003 (ip), vehicle: saline
  T/C: 135 % of control
T/C endpoint: median survival time, dose: 12.5 mg/kg/injection, schedule: Q04DX003 (ip), vehicle: saline
  T/C: 125 % of control [5 of 6 alive]
T/C endpoint: median survival time, dose: 25.0 mg/kg/injection, schedule: Q04DX003 (ip), vehicle: saline
  T/C: 146 % of control
T/C endpoint: median survival time, dose: 200.0 mg/kg/injection, schedule: Q04DX003 (ip), vehicle: saline
  survivor count: 5 of 6

## Cc1ccc2c(c1Oc1ccc(S(N)(=O)=O)cc1)C(=O)c1ccccc1C2=O
T/C endpoint: mean survival time, dose: 50.0 mg/kg/injection, schedule: Q04DX003 (ip), vehicle: saline with Tween-80
  survivor count: 6 of 6
T/C endpoint: mean survival time, dose: 200.0 mg/kg/injection, schedule: Q04DX003 (ip), vehicle: saline sonified
  survivor count: 6 of 6
[3]
  survivor count: 6 of 6

## CN(C)N=Nc1c(F)cccc1F
T/C endpoint: mean survival time, dose: 50.0 mg/kg/injection, schedule: Q01DX009 (ip), vehicle: other
  T/C: 144 % of control
[13]
  T/C: 128 % of control
[14]
  survivor count: 4 of 6
[1]
  survivor count: 4 of 6

## O=C(C=C(C(F)(F)F)C(F)(F)F)c1ccc(Cl)c2ccccc12
[3]
  survivor count: 6 of 6
[2]
  survivor count: 4 of 6

## COc1cccc2c1C(=O)c1c(O)c3c(c(O)c1C2=O)C[C@@](O)(/C(C)=N\O)C[C@@H]3OC1CC(N)C(O)C(C)O1 (stereo partly drawn)
T/C endpoint: mean survival time, dose: 12.5 mg/kg/injection, schedule: Q01DX009 (ip), vehicle: water
  T/C: 126 % of control
T/C endpoint: mean survival time, dose: 50.0 mg/kg/injection, schedule: Q01DX009 (ip), vehicle: water
  survivor count: 4 of 6

## CCNC(=O)Nc1nc2ccccc2[nH]1
[13]
  survivor count: 3 of 3
[1]
  survivor count: 1 of 3

## CC(C#N)CCCC#N (stereo not drawn)
[13]
  survivor count: 2 of 6
[3]
  survivor count: 0 of 6
[2]
  survivor count: 0 of 6

## CC(=O)Nc1cc(N(CCOS(C)(=O)=O)CCOS(C)(=O)=O)ccc1N=O
T/C endpoint: mean survival time, dose: 0.75 mg/kg/injection, schedule: Q04DX003 (ip), vehicle: saline
  T/C: 125 % of control [5 of 6 alive]

## O=C1CSC(=S)N1/N=C/c1ccccc1
[10]
  survivor count: 0 of 3
[11]
  survivor count: 1 of 3

## C[CH2][Sn]([Cl])([CH2]C)[c]1cc[c]([Sn]([Cl])([CH2]C)[CH2]C)cc1
T/C endpoint: median survival time, dose: 0.25 mg/kg/injection, schedule: Q01DX005 (ip), vehicle: Klucel (hydroxypropylcellulose) (HPC)
  survivor count: 3 of 6
T/C endpoint: median survival time, dose: 0.5 mg/kg/injection, schedule: Q01DX005 (ip), vehicle: Klucel (hydroxypropylcellulose) (HPC)
  survivor count: 0 of 6
T/C endpoint: median survival time, dose: 1.0 mg/kg/injection, schedule: Q01DX005 (ip), vehicle: Klucel (hydroxypropylcellulose) (HPC)
  survivor count: 0 of 6
T/C endpoint: median survival time, dose: 240.0 micrograms/kg/injection, schedule: Q01DX005 (ip), vehicle: Klucel (hydroxypropylcellulose) (HPC)
  survivor count: 1 of 6

## OC1OCC(COc2ccc(Cl)cc2)OC1O (stereo not drawn)
T/C endpoint: median survival time, dose: 400.0 mg/kg/injection, schedule: Q01DX005 (ip), vehicle: saline with Tween-80
  T/C: 130 % of control
T/C endpoint: median survival time, dose: 666.0 mg/kg/injection, schedule: Q01DX005 (ip), vehicle: saline with Tween-80
  survivor count: 1 of 6
T/C endpoint: median survival time, dose: 1111.0 mg/kg/injection, schedule: Q01DX005 (ip), vehicle: saline with Tween-80
  survivor count: 0 of 6

## CNC=O
[8]
  T/C: 127 % of control
[9]
  T/C: 142 and 148 % of control
T/C endpoint: mean survival time, dose: 800.0 mg/kg/injection, schedule: Q01DX009 (ip), vehicle: saline
  T/C: 129 % of control
T/C endpoint: mean survival time, dose: 3200.0 mg/kg/injection, schedule: Q01DX009 (ip), vehicle: saline
  survivor count: 0 of 6 and 3 of 6

## O=NN(CCCl)C(=O)NC1CCN(Cc2ccccc2)CC1
T/C endpoint: mean survival time, dose: 25.0 mg/kg/injection, schedule: Q01DX001 (ip), vehicle: saline with Tween-80
  T/C: 148 % of control
[12]
  survivor count: 5 of 6

## [N-]=[N+]=CC(=O)NCC(=O)NNCCO
[14]
  survivor count: 6 of 6
T/C endpoint: mean survival time, dose: 400.0 mg/kg/injection, schedule: Q01DX009 (ip), vehicle: other
  survivor count: 2 of 6 and 6 of 6
T/C endpoint: mean survival time, dose: 600.0 mg/kg/injection, schedule: Q01DX009 (ip), vehicle: other
  survivor count: 0 of 6 and 6 of 6
T/C endpoint: mean survival time, dose: 800.0 mg/kg/injection, schedule: Q01DX009 (ip), vehicle: other
  survivor count: 0 of 6 and 6 of 6

## COc1ccc(/C=N/NC(=O)CNC(=O)Nc2cccc(Cl)c2)cc1
T/C endpoint: mean survival time, dose: 50.0 mg/kg/injection, schedule: Q01DX009 (ip), vehicle: saline with Tween-80
  survivor count: 3 of 3

## O=C(NC(=O)c1ccccc1)Nc1ccccc1
[1]
  survivor count: 6 of 6

## Cc1cc2nc(Cc3ccccc3)[nH]c2cc1C
[2]
  survivor count: 0 of 6

## CS(=O)(=O)Nc1ccc(Nc2c3ccccc3nc3cc([N+](=O)[O-])ccc23)cc1
T/C endpoint: mean survival time, dose: 15.0 mg/kg/injection, schedule: Q01DX009 (ip), vehicle: saline
  T/C: 147 % of control
T/C endpoint: mean survival time, dose: 22.0 mg/kg/injection, schedule: Q01DX009 (ip), vehicle: saline
  survivor count: 6 of 6

## CCC[CH2][Sn]([CH2]CCC)([CH2]CCC)[CH2]CC(=O)OC
[2]
  survivor count: 4 of 6

## Nc1ncnc(N)c1N
[1]
  T/C: 131 % of control
[7]
  T/C: 131 % of control

## COc1cccc2c1C(=O)c1c(OC)c(CBr)cc(OC)c1C2=O
T/C endpoint: mean survival time, dose: 200.0 mg/kg/injection, schedule: Q01DX005 (ip), vehicle: other
  survivor count: 5 of 6
